PubChem BioAssay AID1159584, Peter MacCallum Cancer Centre | 2016

Assay: 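Genes whose loss is lethal only together with E-cadherin loss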 (primary screen)
Cells: human MCF10A breast epithelial cells, parental and CDH1-null
Knock-down reagent: siRNA against human genes
Detection: 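ATP luminescence (CellTiter-Glo) viability per line relative to mean mock wells over all plates, and the ratio of CDH1-null to parental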
Direction: CDH1-null / parental viability ratio: higher = CDH1-null cells survive relatively better than parental
The whole screen tested about 18,000 reagents; shown is an unselected part. Not all columns of the deposit are shown. Not given: the amount of reagent, the time to read-out.

gene symbol | CDH1-null / parental viability ratio
RAB43 (RAB43, member RAS oncogene family) | 1.15
HOXA9 (homeobox A9) | 1.28
SLITRK1 (SLIT and NTRK like family member 1) | 1.11
CD300LB (CD300 molecule like family member b) | 1.07
MAP1LC3B (microtubule associated protein 1 light chain 3 beta) | 1.11
ADAM17 (ADAM metallopeptidase domain 17) | 0.98
ZFHX3 (zinc finger homeobox 3) | 1.18
CDK15 (cyclin dependent kinase 15) | 0.84
EN1 (engrailed homeobox 1) | 0.8
ZNF93 (zinc finger protein 93) | 0.87
RBL1 (RB transcriptional corepressor like 1) | 1.03
C2orf76 (chromosome 2 open reading frame 76) | 1.03
PLRG1 (pleiotropic regulator 1) | 1.07
FOLR3 (folate receptor gamma) | 0.82
ZNF7 (zinc finger protein 7) | 1.05
CEP20 (centrosomal protein 20) | 0.93
THOC7 (THO complex subunit 7) | 0.81
TMC2 (transmembrane channel like 2) | 1.15
ADGRF3 (adhesion G protein-coupled receptor F3) | 1.34
TSPAN18 (tetraspanin 18) | 1.28
ALK (ALK receptor tyrosine kinase) | 0.92
CHCHD5 (coiled-coil-helix-coiled-coil-helix domain containing 5) | 1.04
AMN1 (antagonist of mitotic exit network 1 homolog) | 0.74
DSCAM (DS cell adhesion molecule) | 1.36
B3GAT2 (beta-1,3-glucuronyltransferase 2) | 1.03
TOP6BL (TOP6B like initiator of meiotic double strand breaks) | 1.12
SETD1A (SET domain containing 1A, histone lysine methyltransferase) | 1.14
CAVIN4 (caveolae associated protein 4) | 1.1
SRGN (serglycin) | 0.6
H2AB3 (H2A.B variant histone 3) | 1.14
SULF1 (sulfatase 1) | 0.92
ARL6IP4 (ARF like GTPase 6 interacting protein 4) | 1.11

Continued (6 carried over from the part before).
gene symbol | CDH1-null / parental viability ratio
SETD1A (SET domain containing 1A, histone lysine methyltransferase) | 1.14
CAVIN4 (caveolae associated protein 4) | 1.1
SRGN (serglycin) | 0.6
H2AB3 (H2A.B variant histone 3) | 1.14
SULF1 (sulfatase 1) | 0.92
ARL6IP4 (ARF like GTPase 6 interacting protein 4) | 1.11
SKOR1 (SKI family transcriptional corepressor 1) | 1.04
GLRA3 (glycine receptor alpha 3) | 1.15
ZSWIM7 (zinc finger SWIM-type containing 7) | 0.72
MYH4 (myosin heavy chain 4) | 1.14
ZDHHC8 (zDHHC palmitoyltransferase 8) | 1.33
GALR1 (galanin receptor 1) | 0.82
AKR1A1 (aldo-keto reductase family 1 member A1) | 1.14
SCCPDH (saccharopine dehydrogenase (putative)) | 0.75
ISLR (immunoglobulin superfamily containing leucine rich repeat) | 1.15
ERAP1 (endoplasmic reticulum aminopeptidase 1) | 1.19
LRRFIP1 (LRR binding FLII interacting protein 1) | 0.82
AGAP6 (ArfGAP with GTPase domain, ankyrin repeat and PH domain 6) | 0.98
TAOK1 (TAO kinase 1) | 1.06
MSH2 (mutS homolog 2) | 0.93
OGDH (oxoglutarate dehydrogenase) | 0.9
PIP4K2A (phosphatidylinositol-5-phosphate 4-kinase type 2 alpha) | 1.16
CHD6 (chromodomain helicase DNA binding protein 6) | 1
CYP19A1 (cytochrome P450 family 19 subfamily A member 1) | 1.01
UBQLNL (ubiquilin like) | 0.91
HLA-DQA2 (major histocompatibility complex, class II, DQ alpha 2) | 1.06
NDUFAF1 (NADH:ubiquinone oxidoreductase complex assembly factor 1) | 0.97
TNP1 (transition protein 1) | 0.52
SLC10A4 | 0.83
TEFM (transcription elongation factor, mitochondrial) | 1.21
CRKL (CRK like proto-oncogene, adaptor protein) | 0.78
SMYD2 (SET and MYND domain containing 2) | 0.79
PAGR1 (PAXIP1 associated glutamate rich protein 1) | 0.81
WASHC2A (WASH complex subunit 2A) | 0.98
HEATR3 (HEAT repeat containing 3) | 0.97
MAP3K5 (mitogen-activated protein kinase kinase kinase 5) | 1.02
PRKY (protein kinase Y-linked (pseudogene)) | 1
GCK (glucokinase) | 1.1
MTMR6 (myotubularin related protein 6) | 1.39
CACNA1E (calcium voltage-gated channel subunit alpha1 E) | 1.27
HIF3A (hypoxia inducible factor 3 subunit alpha) | 0.92
CCDC73 (coiled-coil domain containing 73) | 1.26
